Paper PMC8647145, “Foxd3 controls heterochromatin‐mediated repression of repeat elements and 2‐cell state transcription”
For at least one entry, the source does not settle the construct or the ends of the probe. No signal at the amounts used counts as a negative. At least one verdict rests on a figure or table, not on a statement of the authors.

Sequences of proteins named here, by UniProt entry; tags and fusion partners are left off. A change or cut given only in a name is not applied to a line headed by its entry.
UniProt Q61060: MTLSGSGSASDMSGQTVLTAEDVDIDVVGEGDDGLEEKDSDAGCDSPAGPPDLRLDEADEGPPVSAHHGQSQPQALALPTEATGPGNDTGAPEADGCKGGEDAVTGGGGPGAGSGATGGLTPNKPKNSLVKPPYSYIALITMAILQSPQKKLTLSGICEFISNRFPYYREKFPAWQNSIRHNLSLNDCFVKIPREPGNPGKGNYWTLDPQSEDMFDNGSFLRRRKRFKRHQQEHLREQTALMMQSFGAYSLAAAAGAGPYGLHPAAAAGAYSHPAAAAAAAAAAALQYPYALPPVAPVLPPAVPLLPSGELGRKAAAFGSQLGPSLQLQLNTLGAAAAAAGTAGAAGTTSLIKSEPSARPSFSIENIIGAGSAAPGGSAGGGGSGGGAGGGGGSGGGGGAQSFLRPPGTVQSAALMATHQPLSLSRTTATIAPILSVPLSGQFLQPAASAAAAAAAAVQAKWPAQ

Columns and labels:
[1] = biological target: GST-FOXD3 M1 YSY>RAD (mouse) (UniProt Q61060); assay: EMSA; conditions: up to 5 uM protein, EMSA: 50 nM DNA, 20 mM Tris-HCl pH 8.0, 100 mM KCl, 3 mM MgCl2, 1 mM EDTA, 5% glycerol, 0.05% NP-40, 2 mM DTT, 50 ng/ml yeast tRNA, 2.5 ng/ml BSA, 4 C, 1 h, recombinant protein, residues 1-465, protein details: N-terminal GST (pGEX-6P1), label: 5'-Cy5
[2] = biological target: GST-FOXD3 M2 FVK>VAM (mouse) (UniProt Q61060); assay: EMSA; conditions: up to 5 uM protein, EMSA: 50 nM DNA, 20 mM Tris-HCl pH 8.0, 100 mM KCl, 3 mM MgCl2, 1 mM EDTA, 5% glycerol, 0.05% NP-40, 2 mM DTT, 50 ng/ml yeast tRNA, 2.5 ng/ml BSA, 4 C, 1 h, recombinant protein, residues 1-465, protein details: N-terminal GST (pGEX-6P1), label: 5'-Cy5
[3] = oligo called only MERVL, LTR presumed

Sequence | binding result [1, 3] | binding result [2, 3] | binding result [1] | binding result [2]
CAGCTGTGTTCTAAGTGGTAAACAAATAATCTGCG (double strand) [MERVL-LTR] | no binding | no binding | – | –
CTGAAAATCATGGAAAATGAGAAACATCCACTTGA (double strand) [MSR] | – | – | no binding | no binding
